Measured values reported in patent US20250326791A1.
No constants are given. Whether binding was seen depends on the method and setting.

Legend:
Assay in all cases: protein binding radioassay
µ opioid receptor (MOR) = biological target: µ opioid receptor (MOR)
δ opioid receptor (DOR) = biological target: δ opioid receptor (DOR)
κ opioid receptor (KOR) = biological target: κ opioid receptor (KOR)

binding (µ opioid receptor (MOR)): no binding
binding (δ opioid receptor (DOR)): no binding
binding (κ opioid receptor (KOR)): no binding
Binder: YASPKCFRYPNGVLACT (cyclo: disulfide bond Cys6-Cys16) [Odorranalectin (OL)]
